# Earlier results, collected in US20200289431A1 (priority 2019, published 2020).
smiles,measurement,setting,value
C=C(C)[C@@H]1CCC(C)=C[C@H]1c1c(O)cc(CCCCC)cc1O [Cannabidiol],bioavailability via inhalation,"inhalation, range",11 to 45%
same,oral bioavailability,oral,13 to 19%
